Measurements published in the supplement of paper PMC6411743.
± gives the standard deviation of the averaged measurements. Only a part is listed here, and it is no random draw. Small differences around the control level are noise.

Sequences of proteins named here, by UniProt entry; tags and fusion partners are left off. A change or cut given only in a name is not applied to a line headed by its entry.
UniProt Q7Z4G1, whole entry: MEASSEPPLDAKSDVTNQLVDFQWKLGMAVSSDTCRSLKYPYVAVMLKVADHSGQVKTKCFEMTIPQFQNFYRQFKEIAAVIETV
UniProt Q9UKY7: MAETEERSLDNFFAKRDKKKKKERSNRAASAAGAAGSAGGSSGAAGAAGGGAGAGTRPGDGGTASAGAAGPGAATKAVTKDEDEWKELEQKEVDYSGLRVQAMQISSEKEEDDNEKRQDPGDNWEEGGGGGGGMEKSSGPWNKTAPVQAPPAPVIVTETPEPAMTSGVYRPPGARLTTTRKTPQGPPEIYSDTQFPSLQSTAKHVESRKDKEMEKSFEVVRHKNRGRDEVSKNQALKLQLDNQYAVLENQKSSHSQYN
UniProt Q9Y3T6: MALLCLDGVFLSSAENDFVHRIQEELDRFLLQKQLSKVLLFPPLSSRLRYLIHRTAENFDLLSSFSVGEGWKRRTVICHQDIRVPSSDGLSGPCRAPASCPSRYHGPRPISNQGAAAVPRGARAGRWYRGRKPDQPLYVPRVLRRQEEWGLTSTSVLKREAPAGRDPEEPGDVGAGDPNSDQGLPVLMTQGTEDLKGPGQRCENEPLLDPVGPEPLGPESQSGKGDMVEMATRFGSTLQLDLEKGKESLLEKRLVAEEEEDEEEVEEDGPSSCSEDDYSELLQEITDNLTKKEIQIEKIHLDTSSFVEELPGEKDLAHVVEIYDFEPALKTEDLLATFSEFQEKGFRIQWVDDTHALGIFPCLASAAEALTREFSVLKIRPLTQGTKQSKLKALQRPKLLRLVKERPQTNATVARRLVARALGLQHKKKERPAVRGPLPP
UniProt Q14919: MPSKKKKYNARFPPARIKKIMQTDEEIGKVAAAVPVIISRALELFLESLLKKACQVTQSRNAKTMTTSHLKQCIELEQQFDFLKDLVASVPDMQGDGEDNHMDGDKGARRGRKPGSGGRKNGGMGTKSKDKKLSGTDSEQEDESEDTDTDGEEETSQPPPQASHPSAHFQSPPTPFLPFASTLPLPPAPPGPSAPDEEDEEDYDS
UniProt A6NDG6: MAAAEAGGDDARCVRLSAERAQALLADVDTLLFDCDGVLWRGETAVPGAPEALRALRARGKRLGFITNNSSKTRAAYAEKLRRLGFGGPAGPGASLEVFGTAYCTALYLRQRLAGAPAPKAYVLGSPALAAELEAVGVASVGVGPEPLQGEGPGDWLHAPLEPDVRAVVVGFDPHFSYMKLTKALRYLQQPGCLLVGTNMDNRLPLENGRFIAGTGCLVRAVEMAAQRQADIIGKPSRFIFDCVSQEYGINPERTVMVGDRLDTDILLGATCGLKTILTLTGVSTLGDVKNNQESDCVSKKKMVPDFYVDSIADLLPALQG
UniProt Q15853: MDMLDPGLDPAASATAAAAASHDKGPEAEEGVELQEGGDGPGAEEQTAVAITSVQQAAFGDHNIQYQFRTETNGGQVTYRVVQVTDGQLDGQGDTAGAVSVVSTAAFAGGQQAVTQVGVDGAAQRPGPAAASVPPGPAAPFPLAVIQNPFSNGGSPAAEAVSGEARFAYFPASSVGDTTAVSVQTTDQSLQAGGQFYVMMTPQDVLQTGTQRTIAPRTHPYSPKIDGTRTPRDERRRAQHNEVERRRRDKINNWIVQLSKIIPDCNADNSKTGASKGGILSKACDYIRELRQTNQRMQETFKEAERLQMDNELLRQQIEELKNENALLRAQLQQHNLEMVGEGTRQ
UniProt Q15329: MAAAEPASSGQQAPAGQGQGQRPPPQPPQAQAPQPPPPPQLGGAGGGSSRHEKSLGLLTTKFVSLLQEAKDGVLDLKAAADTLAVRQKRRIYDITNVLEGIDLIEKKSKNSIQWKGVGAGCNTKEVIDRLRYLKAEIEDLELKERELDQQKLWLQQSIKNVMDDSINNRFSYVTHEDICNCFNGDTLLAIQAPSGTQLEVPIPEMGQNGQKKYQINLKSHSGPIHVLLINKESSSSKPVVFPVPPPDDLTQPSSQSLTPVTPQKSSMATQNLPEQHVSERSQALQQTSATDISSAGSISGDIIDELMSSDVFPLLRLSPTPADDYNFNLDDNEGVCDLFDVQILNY
UniProt O15197: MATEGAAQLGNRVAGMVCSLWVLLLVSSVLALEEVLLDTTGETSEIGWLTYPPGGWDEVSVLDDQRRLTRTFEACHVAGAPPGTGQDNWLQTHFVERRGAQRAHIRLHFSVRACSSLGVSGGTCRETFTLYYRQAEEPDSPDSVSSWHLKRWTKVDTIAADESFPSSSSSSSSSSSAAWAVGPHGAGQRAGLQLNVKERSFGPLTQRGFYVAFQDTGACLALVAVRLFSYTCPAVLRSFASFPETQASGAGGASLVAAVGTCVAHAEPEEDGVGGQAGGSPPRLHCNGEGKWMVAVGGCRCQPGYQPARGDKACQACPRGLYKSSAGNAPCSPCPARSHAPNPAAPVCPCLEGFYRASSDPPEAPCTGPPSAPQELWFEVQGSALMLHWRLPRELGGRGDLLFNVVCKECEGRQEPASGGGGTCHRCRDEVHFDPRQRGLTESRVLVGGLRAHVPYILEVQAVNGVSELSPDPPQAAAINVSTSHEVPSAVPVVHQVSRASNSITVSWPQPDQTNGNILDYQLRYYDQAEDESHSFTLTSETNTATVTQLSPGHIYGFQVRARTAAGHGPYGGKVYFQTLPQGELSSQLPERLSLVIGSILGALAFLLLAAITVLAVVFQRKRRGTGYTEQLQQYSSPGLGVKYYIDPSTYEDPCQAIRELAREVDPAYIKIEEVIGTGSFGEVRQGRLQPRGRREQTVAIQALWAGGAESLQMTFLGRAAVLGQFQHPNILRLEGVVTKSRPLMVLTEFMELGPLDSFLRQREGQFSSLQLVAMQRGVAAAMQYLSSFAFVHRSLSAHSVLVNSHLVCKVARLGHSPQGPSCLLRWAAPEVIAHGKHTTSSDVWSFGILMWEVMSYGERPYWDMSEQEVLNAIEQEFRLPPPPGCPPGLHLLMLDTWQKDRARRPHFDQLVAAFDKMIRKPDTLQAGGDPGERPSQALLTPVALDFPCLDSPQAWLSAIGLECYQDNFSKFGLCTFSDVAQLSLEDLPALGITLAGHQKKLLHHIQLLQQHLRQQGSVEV
UniProt P14406, whole entry: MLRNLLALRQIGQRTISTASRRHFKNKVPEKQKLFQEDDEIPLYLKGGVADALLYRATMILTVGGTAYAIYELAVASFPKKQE
UniProt O95772: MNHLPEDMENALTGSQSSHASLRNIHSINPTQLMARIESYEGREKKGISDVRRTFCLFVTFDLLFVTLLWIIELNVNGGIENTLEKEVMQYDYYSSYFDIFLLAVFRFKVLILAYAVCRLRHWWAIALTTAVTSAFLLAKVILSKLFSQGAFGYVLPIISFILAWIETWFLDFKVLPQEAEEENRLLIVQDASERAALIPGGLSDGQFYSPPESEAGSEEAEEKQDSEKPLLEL
UniProt B7ZVY7, whole entry, looked up: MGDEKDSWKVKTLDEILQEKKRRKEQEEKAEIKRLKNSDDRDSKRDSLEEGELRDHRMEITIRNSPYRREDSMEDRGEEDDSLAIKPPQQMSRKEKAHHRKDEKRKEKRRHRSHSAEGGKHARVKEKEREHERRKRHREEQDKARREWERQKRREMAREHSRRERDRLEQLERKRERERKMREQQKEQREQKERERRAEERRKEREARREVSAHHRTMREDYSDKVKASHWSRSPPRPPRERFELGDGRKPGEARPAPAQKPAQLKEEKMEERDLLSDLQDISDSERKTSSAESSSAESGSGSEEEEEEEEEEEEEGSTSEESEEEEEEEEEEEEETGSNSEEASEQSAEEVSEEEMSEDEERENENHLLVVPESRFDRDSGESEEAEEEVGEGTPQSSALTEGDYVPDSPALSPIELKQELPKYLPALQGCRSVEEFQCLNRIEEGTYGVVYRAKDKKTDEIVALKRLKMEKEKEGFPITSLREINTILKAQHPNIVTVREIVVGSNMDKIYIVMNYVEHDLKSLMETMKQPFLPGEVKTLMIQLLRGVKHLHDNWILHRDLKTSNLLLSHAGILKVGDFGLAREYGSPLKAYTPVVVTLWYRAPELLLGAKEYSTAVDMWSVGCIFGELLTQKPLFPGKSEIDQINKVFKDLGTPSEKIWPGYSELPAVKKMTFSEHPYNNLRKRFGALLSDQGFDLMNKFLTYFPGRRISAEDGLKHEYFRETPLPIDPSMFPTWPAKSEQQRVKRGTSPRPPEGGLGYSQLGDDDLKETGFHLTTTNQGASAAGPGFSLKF
UniProt P08069, whole entry, looked up: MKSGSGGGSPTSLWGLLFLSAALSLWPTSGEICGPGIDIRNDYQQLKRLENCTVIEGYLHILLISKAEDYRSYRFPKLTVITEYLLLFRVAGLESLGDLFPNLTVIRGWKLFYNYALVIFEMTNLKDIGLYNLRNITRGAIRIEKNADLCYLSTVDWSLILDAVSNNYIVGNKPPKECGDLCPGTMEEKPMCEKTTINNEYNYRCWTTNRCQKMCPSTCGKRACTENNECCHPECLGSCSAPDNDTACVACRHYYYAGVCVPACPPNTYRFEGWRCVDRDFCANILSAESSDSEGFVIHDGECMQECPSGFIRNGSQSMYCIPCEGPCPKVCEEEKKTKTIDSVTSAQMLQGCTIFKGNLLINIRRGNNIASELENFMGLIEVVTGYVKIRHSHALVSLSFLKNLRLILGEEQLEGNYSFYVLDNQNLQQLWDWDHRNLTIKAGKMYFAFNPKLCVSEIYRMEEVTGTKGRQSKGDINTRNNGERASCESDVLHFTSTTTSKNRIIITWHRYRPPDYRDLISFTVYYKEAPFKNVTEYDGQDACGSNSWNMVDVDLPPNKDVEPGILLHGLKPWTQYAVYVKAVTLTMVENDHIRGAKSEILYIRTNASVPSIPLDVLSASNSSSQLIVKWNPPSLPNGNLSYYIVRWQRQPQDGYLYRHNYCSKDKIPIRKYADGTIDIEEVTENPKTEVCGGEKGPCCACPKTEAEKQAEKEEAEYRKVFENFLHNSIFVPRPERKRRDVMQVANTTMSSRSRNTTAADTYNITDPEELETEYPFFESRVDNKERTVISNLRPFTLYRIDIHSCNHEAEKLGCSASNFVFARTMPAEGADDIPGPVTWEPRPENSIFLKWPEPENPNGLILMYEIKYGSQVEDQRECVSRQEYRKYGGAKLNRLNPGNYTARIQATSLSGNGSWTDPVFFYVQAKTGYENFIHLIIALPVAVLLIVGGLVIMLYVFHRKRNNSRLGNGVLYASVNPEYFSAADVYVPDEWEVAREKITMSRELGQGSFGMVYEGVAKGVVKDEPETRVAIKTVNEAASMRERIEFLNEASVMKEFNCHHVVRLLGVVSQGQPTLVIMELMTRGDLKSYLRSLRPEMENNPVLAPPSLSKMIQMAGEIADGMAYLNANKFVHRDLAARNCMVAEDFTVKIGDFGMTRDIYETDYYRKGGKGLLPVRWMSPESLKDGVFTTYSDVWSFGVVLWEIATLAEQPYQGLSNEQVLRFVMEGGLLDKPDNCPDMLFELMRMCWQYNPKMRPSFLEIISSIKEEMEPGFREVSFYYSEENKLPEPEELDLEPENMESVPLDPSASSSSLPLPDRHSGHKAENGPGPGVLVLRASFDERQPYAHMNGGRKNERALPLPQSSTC
UniProt Q13685: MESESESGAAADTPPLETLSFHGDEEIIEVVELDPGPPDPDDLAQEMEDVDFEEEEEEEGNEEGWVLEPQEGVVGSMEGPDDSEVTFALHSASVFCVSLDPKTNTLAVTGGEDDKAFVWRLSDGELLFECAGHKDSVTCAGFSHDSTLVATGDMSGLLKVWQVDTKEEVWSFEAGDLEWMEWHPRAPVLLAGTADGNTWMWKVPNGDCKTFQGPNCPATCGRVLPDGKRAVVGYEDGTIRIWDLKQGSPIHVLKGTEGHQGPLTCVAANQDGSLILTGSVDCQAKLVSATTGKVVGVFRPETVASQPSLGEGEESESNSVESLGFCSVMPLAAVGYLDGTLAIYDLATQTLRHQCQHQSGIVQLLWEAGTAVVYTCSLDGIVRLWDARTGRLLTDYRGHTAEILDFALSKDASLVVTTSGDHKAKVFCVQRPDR
UniProt Q86WP2: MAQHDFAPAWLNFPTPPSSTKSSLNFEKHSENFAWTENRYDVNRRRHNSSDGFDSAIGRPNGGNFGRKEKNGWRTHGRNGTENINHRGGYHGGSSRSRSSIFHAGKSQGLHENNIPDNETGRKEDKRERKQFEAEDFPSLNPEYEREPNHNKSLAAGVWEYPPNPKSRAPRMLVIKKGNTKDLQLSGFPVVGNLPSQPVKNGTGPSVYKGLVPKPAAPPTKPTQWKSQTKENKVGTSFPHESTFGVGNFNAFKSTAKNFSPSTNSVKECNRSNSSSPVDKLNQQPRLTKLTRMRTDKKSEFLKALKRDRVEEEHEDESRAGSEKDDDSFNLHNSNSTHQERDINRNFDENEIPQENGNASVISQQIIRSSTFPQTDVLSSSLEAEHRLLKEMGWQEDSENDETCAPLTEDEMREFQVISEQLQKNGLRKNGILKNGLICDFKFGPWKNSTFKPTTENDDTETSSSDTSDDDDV
UniProt O75817: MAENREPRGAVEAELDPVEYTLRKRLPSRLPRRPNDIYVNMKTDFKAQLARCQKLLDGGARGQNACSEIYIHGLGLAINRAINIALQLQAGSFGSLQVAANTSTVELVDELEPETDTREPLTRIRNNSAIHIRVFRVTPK

Compound: Nc1ncnc2c1ncn2[C@@H]1O[C@H](COP(=O)(O)OP(=O)(O)OP(=O)(O)O)[C@@H](O)[C@H]1O [adenosine triphosphate]
Test: NP40-soluble protein abundance relative to vehicle (solubility fold change) (ratio); higher = more soluble protein in presence of ATP
Method in brief: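 Across three independent experiments, values are fold changes against the detergent-processed vehicle for each replicate, based on vsn-normalised intensities. The samples were Jurkat crude lysate treated with eight concentrations (0.1 to 10 mM) for 10 min at room temperature and then 3 min at 37 °C. Lysate was solubilised with 0.8% NP40 and benzonase, ultracentrifuged, and the supernatant analysed by TMT-labelled LC-MS/MS.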

Target	NP40-soluble protein abundance (concentration: 0.1mM)	NP40-soluble protein abundance (concentration: 0.5mM)
B9ZVU2 and related entries (UniProt Q9ULA0)	1.01 ± 0.027	0.988 ± 0.029
B0QZ40 and related entries (UniProt Q7Z4G1)	0.852 ± 0.064	0.857 ± 0.098
D6R9V8 and related entries (UniProt Q9UKY7)	0.879 ± 0.053	0.896 ± 0.051
C9J7Z4 and related entries (UniProt Q8NCE0)	1.012 ± 0.0068	1.06 ± 0.12
A0A0R4J2E2|Q9Y3T6 and related entries (UniProt Q9Y3T6)	1.04 ± 0.026	1.01 ± 0.048
C9JCC6 and related entries (UniProt Q14919)	0.823 ± 0.27	0.792 ± 0.41
D3YTB1 and related entries (UniProt P62910)	0.903 ± 0.12	0.9 ± 0.1
B7Z3R9 and related entries (UniProt Q8TE99)	0.991 ± 0.012	1.02 ± 0.039
D6RB01 and related entries (UniProt Q9Y6X4)	0.987 ± 0.033	0.962 ± 0.056
PGP (UniProt A6NDG6)	0.992 ± 0.056	1.01 ± 0.035
B4DLJ1 and related entries (UniProt Q15853)	0.987 ± 0.043	1 ± 0.042
B5MCU0 and related entries (UniProt Q9Y2K5)	1.08 ± 0.013	0.99 ± 0.053
A0A0G2JIR1|A0A0G2JIS2|A0A0G2JK64|A2ABF8 and related entries (UniProt Q96KQ7)	1.02 ± 0.077	1.03 ± 0.043
C9JCW7 and related entries (UniProt Q9BVT8)	0.979 ± 0.074	0.964 ± 0.06
C9J2V2 and related entries (UniProt Q9Y6K9)	0.996 ± 0.041	0.945 ± 0.048
C9JYE9 and related entries (UniProt Q15329)	1.02 ± 0.025	0.995 ± 0.067
UniProt A0JNW5 and related entries	1.03 ± 0.1	1.04 ± 0.025

Pulled one by one from the entries so far, two records:
Target	NP40-soluble protein abundance (concentration: 0.1mM)	NP40-soluble protein abundance (concentration: 0.5mM)
C9JYE9 and related entries (UniProt Q15329)	1.02 ± 0.025	0.995 ± 0.067
B7Z3R9 and related entries (UniProt Q8TE99)	0.991 ± 0.012	1.02 ± 0.039

The list continues.

Target	NP40-soluble protein abundance (concentration: 0.1mM)	NP40-soluble protein abundance (concentration: 0.5mM)
D6R9Q7 and related entries (UniProt Q8NBW4)	1 ± 0.036	0.942 ± 0.097
A0A0G2JNC5|A0A0G2JNH7|F8WCM8 and related entries (UniProt O15197)	1.07 ± 0.052	1.02 ± 0.025
D6RGV5 and related entries (UniProt P14406)	0.908 ± 0.12	0.838 ± 0.18
C9JKL2 and related entries (UniProt O95772)	0.972 ± 0.019	0.92 ± 0.042
C9IYN3 and related entries (UniProt Q8WVV9+D6W592+C9IYN3)	1.04 ± 0.073	1.06 ± 0.07
B7ZVY7 and related entries (UniProt P21127+B7ZVY7)	0.985 ± 0.057	0.899 ± 0.075
C9J5X1 and related entries (UniProt P08069)	0.976 ± 0.018	0.968 ± 0.036
B1ALH6 and related entries (UniProt O14832)	0.987 ± 0.078	1.04 ± 0.072
A0A0U1RRB3|Q8IYT2 (UniProt Q8IYT2)	1.05 ± 0.053	0.998 ± 0.035
A9IYQ1 and related entries (UniProt Q9NTI5)	1.01 ± 0.046	1.04 ± 0.043
A0A0G2JLV7|A0A0G2JMI0|A0A0G2JNK8|A0A0G2JNU6|A0A0G2JP18|A0A0G2JQ50|A0A140T8W3|Q6GTX8 and related entries (UniProt Q6GTX8)	0.971 ± 0.12	0.919 ± 0.1
C9JEH3 and related entries (UniProt Q13685)	1.01 ± 0.099	1.05 ± 0.12
A0A0U1RQQ9|Q6P3W7 (UniProt Q6P3W7)	1 ± 0.024	1.04 ± 0.06
D4PHA4 and related entries (UniProt Q86WP2)	1.05 ± 0.092	0.997 ± 0.092
C9JSZ1 and related entries (UniProt Q96AE4)	0.943 ± 0.023	0.935 ± 0.023
C9JYM0 and related entries (UniProt O75817)	1.19 ± 0.23	1.01 ± 0.13
